Structures can show the parent of a compound that is named as a salt. Some of the results follow. Hit calls seldom repeat between salt and free forms of one compound.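 Kinases, fused to nanoluciferase, were expressed in K562 cells; luminescence was measured every 4 h from 2 to 18 h as percent of control (DMSO = 100%, positive control = 0%). A time point is decreased if signal falls significantly (2 sigma). Hits were called by the authors by a rule that is not shown; the count of time points alone does not decide it.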
Tests used:
Experiment in all cases: kinase-Nluc reporter destabilization hit call (1 = scored as downregulated) (binary); higher = compound decreases kinase abundance
Settings in all cases: K562; 2-18 h
[1] = biological target: IRAK3 (UniProt Q9Y616)
[2] = biological target: JAK1 (UniProt P23458)
[3] = biological target: LCK (UniProt P06239)
[4] = biological target: LIMK1 (UniProt P53667)
[5] = biological target: LIMK2 (UniProt P53671)
[6] = biological target: LMTK2 (UniProt Q8IWU2)
[7] = biological target: LYN (UniProt P07948)
[8] = biological target: MAP2K1 (UniProt Q02750)
[9] = biological target: MAP2K2 (UniProt P36507)
[10] = biological target: MAP4K2 (UniProt Q12851)
[11] = biological target: MAPK1 (UniProt P28482)
[12] = biological target: MAPK4 (UniProt P31152)
[13] = biological target: MAPKAPK2 (UniProt P49137)
[14] = biological target: MKNK1 (UniProt Q9BUB5)
[15] = biological target: NTRK2 (UniProt Q16620)
[16] = biological target: NTRK3 (UniProt Q16288)
[17] = biological target: PAK4 (UniProt O96013)
[18] = biological target: PBK (UniProt Q96KB5)
[19] = biological target: PDGFRB (UniProt P09619)
[20] = biological target: PDK1 (UniProt Q15118)

Chains of the proteins cited; added tags and fusions are not shown. Lines headed by an entry give the natural chain unless they say otherwise; changes in a name come on top.
UniProt P23458: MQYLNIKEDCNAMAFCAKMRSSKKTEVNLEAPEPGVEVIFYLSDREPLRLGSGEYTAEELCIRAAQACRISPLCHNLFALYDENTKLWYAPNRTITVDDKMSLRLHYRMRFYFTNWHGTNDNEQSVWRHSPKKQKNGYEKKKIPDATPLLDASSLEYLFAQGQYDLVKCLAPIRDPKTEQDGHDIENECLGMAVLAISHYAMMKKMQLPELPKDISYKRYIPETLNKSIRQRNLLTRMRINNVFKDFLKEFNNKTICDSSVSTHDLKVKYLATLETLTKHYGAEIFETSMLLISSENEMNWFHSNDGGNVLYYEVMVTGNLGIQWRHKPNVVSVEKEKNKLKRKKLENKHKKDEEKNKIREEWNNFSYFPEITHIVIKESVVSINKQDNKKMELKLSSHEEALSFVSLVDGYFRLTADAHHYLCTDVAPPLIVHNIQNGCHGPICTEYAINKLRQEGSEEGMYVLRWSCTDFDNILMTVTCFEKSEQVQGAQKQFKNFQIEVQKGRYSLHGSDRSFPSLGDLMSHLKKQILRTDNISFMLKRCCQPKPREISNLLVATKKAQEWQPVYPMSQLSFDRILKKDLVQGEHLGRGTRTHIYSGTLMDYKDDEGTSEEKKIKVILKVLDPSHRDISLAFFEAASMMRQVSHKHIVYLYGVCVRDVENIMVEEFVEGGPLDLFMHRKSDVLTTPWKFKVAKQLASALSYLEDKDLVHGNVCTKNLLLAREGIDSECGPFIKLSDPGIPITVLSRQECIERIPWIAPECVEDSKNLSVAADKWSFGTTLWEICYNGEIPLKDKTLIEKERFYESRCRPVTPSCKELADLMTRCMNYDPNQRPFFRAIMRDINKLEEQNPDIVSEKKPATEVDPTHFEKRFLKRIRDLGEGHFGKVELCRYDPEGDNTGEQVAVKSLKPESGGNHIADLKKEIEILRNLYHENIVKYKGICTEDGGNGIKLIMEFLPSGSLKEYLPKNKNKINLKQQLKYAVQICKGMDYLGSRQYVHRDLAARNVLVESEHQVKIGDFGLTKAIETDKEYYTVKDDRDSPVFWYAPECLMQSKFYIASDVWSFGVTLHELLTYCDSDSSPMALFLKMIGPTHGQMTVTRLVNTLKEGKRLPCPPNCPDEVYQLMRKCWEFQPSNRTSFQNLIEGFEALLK
UniProt P53671: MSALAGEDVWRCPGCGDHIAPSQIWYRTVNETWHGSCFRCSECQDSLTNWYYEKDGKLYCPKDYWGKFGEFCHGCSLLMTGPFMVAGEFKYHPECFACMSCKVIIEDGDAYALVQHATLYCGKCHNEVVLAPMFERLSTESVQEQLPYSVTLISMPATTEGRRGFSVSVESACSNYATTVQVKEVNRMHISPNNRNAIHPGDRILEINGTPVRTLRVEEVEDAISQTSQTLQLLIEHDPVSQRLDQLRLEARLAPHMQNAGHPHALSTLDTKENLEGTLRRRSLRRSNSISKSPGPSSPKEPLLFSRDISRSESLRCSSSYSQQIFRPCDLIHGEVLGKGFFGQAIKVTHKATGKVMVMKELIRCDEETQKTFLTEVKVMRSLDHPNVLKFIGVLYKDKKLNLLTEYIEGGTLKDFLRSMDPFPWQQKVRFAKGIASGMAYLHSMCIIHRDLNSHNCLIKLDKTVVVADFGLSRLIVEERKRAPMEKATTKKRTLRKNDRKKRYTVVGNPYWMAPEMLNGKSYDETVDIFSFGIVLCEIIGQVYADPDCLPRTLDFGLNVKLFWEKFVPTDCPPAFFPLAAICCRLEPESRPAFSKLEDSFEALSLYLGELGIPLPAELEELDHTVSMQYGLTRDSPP
UniProt Q8IWU2: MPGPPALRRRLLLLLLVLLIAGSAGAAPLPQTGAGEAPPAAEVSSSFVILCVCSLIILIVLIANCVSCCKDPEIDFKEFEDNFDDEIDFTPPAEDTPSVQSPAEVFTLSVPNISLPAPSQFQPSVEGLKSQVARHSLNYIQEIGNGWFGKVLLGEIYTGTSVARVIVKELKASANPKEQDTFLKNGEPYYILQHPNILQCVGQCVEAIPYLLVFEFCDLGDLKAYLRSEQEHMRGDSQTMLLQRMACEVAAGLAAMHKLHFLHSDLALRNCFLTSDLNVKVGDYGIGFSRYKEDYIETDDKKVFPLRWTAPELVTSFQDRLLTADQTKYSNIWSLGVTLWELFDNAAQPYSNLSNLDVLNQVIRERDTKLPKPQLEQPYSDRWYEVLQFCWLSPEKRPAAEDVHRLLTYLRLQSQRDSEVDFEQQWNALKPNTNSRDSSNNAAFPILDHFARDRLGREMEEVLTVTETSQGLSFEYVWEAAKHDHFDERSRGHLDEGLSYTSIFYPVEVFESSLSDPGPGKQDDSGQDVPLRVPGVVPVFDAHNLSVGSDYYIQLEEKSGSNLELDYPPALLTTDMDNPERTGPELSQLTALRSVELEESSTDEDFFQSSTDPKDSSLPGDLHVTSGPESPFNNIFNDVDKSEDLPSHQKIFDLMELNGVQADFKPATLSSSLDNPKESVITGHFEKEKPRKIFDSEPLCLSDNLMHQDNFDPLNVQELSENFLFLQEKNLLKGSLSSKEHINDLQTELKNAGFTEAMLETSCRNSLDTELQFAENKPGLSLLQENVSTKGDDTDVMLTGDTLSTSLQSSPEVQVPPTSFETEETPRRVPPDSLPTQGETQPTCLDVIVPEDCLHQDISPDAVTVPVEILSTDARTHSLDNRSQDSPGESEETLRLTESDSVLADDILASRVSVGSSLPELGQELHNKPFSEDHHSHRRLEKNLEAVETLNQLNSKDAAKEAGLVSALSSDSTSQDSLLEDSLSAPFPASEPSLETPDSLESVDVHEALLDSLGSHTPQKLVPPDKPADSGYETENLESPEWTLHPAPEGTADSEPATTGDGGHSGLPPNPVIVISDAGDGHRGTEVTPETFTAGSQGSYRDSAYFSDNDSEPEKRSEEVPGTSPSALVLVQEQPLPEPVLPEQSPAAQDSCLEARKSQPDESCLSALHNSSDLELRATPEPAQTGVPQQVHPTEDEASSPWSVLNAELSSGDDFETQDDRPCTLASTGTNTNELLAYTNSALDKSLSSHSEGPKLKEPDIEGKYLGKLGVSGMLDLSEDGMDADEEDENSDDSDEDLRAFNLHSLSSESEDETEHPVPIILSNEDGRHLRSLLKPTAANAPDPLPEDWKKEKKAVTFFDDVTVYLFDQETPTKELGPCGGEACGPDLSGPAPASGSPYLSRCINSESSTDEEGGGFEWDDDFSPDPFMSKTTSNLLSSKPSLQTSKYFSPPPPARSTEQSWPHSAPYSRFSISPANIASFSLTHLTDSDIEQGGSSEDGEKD
UniProt P07948: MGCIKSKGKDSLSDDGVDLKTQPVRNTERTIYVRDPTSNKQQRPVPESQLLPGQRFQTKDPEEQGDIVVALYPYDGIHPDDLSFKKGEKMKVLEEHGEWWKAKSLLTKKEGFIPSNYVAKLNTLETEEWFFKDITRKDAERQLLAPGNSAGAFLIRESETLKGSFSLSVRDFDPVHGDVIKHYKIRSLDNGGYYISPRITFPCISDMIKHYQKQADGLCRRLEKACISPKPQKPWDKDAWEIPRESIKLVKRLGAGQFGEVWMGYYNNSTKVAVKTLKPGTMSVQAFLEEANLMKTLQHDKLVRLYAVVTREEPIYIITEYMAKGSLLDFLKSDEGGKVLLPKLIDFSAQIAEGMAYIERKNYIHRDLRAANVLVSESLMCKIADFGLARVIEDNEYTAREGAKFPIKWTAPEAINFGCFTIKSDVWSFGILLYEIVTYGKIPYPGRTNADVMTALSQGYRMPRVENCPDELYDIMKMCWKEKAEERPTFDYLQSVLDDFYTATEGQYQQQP
UniProt P28482, whole entry: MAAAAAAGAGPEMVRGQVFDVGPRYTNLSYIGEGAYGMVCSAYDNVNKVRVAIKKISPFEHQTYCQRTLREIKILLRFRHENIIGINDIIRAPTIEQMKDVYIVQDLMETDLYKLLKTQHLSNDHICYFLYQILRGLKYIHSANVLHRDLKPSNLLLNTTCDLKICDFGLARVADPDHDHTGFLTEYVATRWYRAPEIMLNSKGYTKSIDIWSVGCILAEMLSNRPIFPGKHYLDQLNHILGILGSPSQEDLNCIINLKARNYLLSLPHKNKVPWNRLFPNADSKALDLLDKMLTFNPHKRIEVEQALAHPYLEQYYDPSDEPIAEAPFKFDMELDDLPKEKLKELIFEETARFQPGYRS
UniProt Q9BUB5: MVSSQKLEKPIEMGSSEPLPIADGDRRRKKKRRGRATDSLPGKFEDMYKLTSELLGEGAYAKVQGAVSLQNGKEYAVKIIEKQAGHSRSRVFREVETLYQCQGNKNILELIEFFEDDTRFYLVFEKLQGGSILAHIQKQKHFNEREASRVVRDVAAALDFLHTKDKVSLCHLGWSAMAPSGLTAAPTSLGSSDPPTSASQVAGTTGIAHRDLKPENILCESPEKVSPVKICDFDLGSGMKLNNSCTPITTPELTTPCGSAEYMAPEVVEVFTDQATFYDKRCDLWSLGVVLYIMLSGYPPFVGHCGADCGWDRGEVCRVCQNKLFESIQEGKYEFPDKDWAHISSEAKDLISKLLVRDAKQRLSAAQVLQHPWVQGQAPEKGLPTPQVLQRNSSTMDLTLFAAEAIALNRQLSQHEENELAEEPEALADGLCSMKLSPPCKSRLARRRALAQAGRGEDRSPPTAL
UniProt Q16620, whole entry, looked up: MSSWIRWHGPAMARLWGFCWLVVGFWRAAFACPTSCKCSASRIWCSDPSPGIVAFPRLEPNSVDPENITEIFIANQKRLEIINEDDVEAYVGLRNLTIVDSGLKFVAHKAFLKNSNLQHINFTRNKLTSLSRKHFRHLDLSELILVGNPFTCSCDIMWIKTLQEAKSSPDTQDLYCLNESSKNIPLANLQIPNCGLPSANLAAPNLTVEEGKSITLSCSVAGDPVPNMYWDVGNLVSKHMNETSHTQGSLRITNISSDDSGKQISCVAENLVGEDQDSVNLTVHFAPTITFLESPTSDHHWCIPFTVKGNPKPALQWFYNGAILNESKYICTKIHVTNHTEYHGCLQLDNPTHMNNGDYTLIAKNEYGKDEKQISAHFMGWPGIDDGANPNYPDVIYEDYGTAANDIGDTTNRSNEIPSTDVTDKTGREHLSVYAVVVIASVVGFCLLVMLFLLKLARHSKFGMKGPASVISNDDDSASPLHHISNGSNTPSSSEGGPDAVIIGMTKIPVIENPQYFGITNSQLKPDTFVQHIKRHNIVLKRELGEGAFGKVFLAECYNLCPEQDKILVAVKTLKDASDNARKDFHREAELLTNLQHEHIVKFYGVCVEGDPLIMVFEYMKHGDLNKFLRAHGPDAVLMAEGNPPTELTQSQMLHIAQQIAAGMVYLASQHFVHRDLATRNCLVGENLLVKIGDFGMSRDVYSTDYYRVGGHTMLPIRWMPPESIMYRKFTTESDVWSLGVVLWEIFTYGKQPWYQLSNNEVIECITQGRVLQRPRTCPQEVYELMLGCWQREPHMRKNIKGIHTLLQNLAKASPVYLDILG
UniProt Q16288, whole entry, looked up: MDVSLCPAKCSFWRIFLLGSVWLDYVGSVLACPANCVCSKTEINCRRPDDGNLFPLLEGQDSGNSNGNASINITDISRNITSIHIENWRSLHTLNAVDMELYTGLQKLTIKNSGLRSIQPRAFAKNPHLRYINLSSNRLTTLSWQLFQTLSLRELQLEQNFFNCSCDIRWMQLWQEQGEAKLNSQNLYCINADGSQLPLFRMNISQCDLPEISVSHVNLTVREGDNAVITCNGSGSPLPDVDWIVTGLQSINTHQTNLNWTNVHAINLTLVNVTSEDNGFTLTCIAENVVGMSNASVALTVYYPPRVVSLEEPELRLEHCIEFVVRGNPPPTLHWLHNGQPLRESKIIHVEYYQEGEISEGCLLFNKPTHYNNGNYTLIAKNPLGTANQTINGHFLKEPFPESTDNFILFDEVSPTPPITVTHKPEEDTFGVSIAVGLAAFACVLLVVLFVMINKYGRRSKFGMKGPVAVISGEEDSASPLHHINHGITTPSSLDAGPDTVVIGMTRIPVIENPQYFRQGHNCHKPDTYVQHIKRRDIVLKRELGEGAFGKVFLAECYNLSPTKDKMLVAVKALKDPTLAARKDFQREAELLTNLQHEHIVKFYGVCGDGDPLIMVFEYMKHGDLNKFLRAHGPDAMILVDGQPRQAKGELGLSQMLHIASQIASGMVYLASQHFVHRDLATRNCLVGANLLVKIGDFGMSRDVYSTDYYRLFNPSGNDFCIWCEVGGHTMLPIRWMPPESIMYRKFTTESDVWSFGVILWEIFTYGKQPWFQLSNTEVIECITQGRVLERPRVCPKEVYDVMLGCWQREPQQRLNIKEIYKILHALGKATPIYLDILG

Measured: kinase-Nluc reporter destabilization hit call

COc1ccc(-c2ccc3c(N4CCOCC4)nc(N4C[C@@H](C)O[C@@H](C)C4)nc3n2)cc1CO (2.5 µM)
inactive: [1] 0 | [2] 0 | [3] 0 | [4] 0 | [5] 0 | [6] 0 | [7] 0 | [8] 0 | [9] 0 | [10] 0 | [11] 0 | [12] 0 | [13] 0 | [14] 0 | [15] 0 | [16] 0 | [17] 0 | [18] 0 | [19] 0 | [20] 0

Cc1cccc(-c2[nH]ncc2-c2ccc(F)c(-c3cnn(CCO)c3)c2)n1 (10 µM)
inactive: [1] 0 | [2] 0 | [3] 0 | [4] 0 | [5] 0 | [6] 0 | [7] 0 | [8] 0 | [9] 0 | [10] 0 | [11] 0 | [12] 0 | [13] 0 | [14] 0 | [15] 0 | [16] 0 | [17] 0 | [18] 0 | [19] 0 | [20] 0

Cc1c(NC(=O)c2cccn(-c3ccc(F)cc3)c2=O)ccc(Oc2ccnc(NC(=O)C3CC3)c2)c1C (2 µM)
inactive: [1] 0 | [2] 0 | [3] 0 | [4] 0 | [5] 0 | [6] 0 | [7] 0 | [8] 0 | [9] 0 | [10] 0 | [11] 0 | [12] 0 | [13] 0 | [14] 0 | [15] 0 | [16] 0 | [17] 0 | [18] 0 | [19] 0 | [20] 0

O=C(Nc1cn[nH]c1-c1ccccn1)c1nn(C2CCNCC2)cc1Cl (10 µM)
inactive: [1] 0 | [2] 0 | [3] 0 | [4] 0 | [5] 0 | [6] 0 | [7] 0 | [8] 0 | [9] 0 | [10] 0 | [11] 0 | [12] 0 | [13] 0 | [14] 0 | [15] 0 | [16] 0 | [17] 0 | [18] 0 | [19] 0 | [20] 0

O=Nc1c(-c2c(O)[nH]c3ccc(I)cc23)[nH]c2ccccc12 [5-Iodo-indirubin-3'-monoxime] (10 µM)
inactive: [1] 0 | [2] 0 | [3] 0 | [4] 0 | [5] 0 | [6] 0 | [7] 0 | [8] 0 | [9] 0 | [10] 0 | [11] 0 | [12] 0 | [13] 0 | [14] 0 | [15] 0 | [16] 0 | [17] 0 | [18] 0 | [19] 0 | [20] 0

Cn1cnc2c(F)c(Nc3ccc(Br)cc3Cl)c(C(=O)NOCCO)cc21 [Selumetinib] (10 µM)
inactive: [1] 0 | [2] 0 | [3] 0 | [4] 0 | [5] 0 | [6] 0 | [7] 0 | [8] 0 | [9] 0 | [10] 0 | [11] 0 | [12] 0 | [13] 0 | [14] 0 | [15] 0 | [16] 0 | [17] 0 | [18] 0 | [19] 0 | [20] 0

C[C@@H]1CC[C@@H](Nc2nc(NC(C)(C)C)ncc2C(N)=O)C[C@H]1O (10 µM)
inactive: [1] 0 | [2] 0 | [3] 0 | [4] 0 | [5] 0 | [6] 0 | [7] 0 | [8] 0 | [9] 0 | [10] 0 | [11] 0 | [12] 0 | [13] 0 | [14] 0 | [15] 0 | [16] 0 | [17] 0 | [18] 0 | [19] 0 | [20] 0

Cc1cc(=O)oc2c(C=O)c(O)ccc12 (10 µM)
inactive: [1] 0 | [2] 0 | [3] 0 | [4] 0 | [5] 0 | [6] 0 | [7] 0 | [8] 0 | [9] 0 | [10] 0 | [11] 0 | [12] 0 | [13] 0 | [14] 0 | [15] 0 | [16] 0 | [17] 0 | [18] 0 | [19] 0 | [20] 0

CN1CCC(c2cc(-c3ccncc3)c(-c3ccc(F)cc3)[nH]2)CC1 (10 µM)
inactive: [1] 0 | [2] 0 | [3] 0 | [4] 0 | [5] 0 | [6] 0 | [7] 0 | [8] 0 | [9] 0 | [10] 0 | [11] 0 | [12] 0 | [13] 0 | [14] 0 | [15] 0 | [16] 0 | [17] 0 | [18] 0 | [19] 0 | [20] 0

For convenience, two of the compounds above:
COc1ccc(-c2ccc3c(N4CCOCC4)nc(N4C[C@@H](C)O[C@@H](C)C4)nc3n2)cc1CO (2.5 µM)
inactive: [1] 0 | [2] 0 | [3] 0 | [4] 0 | [5] 0 | [6] 0 | [7] 0 | [8] 0 | [9] 0 | [10] 0 | [11] 0 | [12] 0 | [13] 0 | [14] 0 | [15] 0 | [16] 0 | [17] 0 | [18] 0 | [19] 0 | [20] 0

Cc1cccc(-c2[nH]ncc2-c2ccc(F)c(-c3cnn(CCO)c3)c2)n1 (10 µM)
inactive: [1] 0 | [2] 0 | [3] 0 | [4] 0 | [5] 0 | [6] 0 | [7] 0 | [8] 0 | [9] 0 | [10] 0 | [11] 0 | [12] 0 | [13] 0 | [14] 0 | [15] 0 | [16] 0 | [17] 0 | [18] 0 | [19] 0 | [20] 0

Next records

CN1C(=O)N[C@H](Cc2c[nH]c3c(Cl)cccc23)C1=O [Necrostatin 2] (10 µM)
inactive: [1] 0 | [2] 0 | [3] 0 | [4] 0 | [5] 0 | [6] 0 | [7] 0 | [8] 0 | [9] 0 | [10] 0 | [11] 0 | [12] 0 | [13] 0 | [14] 0 | [15] 0 | [16] 0 | [17] 0 | [18] 0 | [19] 0 | [20] 0

O=c1[nH]c(=O)n([C@@H]2O[C@H](CO)[C@@H](O)[C@@H]2O)cc1/C=C/Br [Sorivudine] (10 µM)
inactive: [1] 0 | [2] 0 | [3] 0 | [4] 0 | [5] 0 | [6] 0 | [7] 0 | [8] 0 | [9] 0 | [10] 0 | [11] 0 | [12] 0 | [13] 0 | [14] 0 | [15] 0 | [16] 0 | [17] 0 | [18] 0 | [19] 0 | [20] 0

Cc1cc(Nc2ncnc3ccc(NC4=NC(C)(C)CO4)cc23)ccc1Oc1ccn2ncnc2c1 [Tucatinib] (2.5 µM)
inactive: [1] 0 | [2] 0 | [3] 0 | [4] 0 | [5] 0 | [6] 0 | [7] 0 | [8] 0 | [9] 0 | [10] 0 | [11] 0 | [12] 0 | [13] 0 | [14] 0 | [15] 0 | [16] 0 | [17] 0 | [18] 0 | [19] 0 | [20] 0

CN(C)CCSSCCNC(=O)C1CCN(C(=O)CSc2ccc(Cl)cc2)CC1 (10 µM)
inactive: [1] 0 | [2] 0 | [3] 0 | [4] 0 | [5] 0 | [6] 0 | [7] 0 | [8] 0 | [9] 0 | [10] 0 | [11] 0 | [12] 0 | [13] 0 | [14] 0 | [15] 0 | [16] 0 | [17] 0 | [18] 0 | [19] 0 | [20] 0

NC(=O)c1nc(Nc2ccccc2)sc1NC(=O)C1CCCCC1 (10 µM)
inactive: [1] 0 | [2] 0 | [3] 0 | [4] 0 | [5] 0 | [6] 0 | [7] 0 | [8] 0 | [9] 0 | [10] 0 | [11] 0 | [12] 0 | [13] 0 | [14] 0 | [15] 0 | [16] 0 | [17] 0 | [18] 0 | [19] 0 | [20] 0

C=CC(=O)Nc1cccc(Nc2nc(Nc3ccc(N4CCN(C(C)=O)CC4)cc3OC)ncc2C(F)(F)F)c1 [Rociletinib hydrobromide] (10 µM)
inactive: [1] 0 | [2] 0 | [3] 0 | [4] 0 | [5] 0 | [6] 0 | [7] 0 | [8] 0 | [9] 0 | [10] 0 | [11] 0 | [12] 0 | [13] 0 | [14] 0 | [15] 0 | [16] 0 | [17] 0 | [18] 0 | [19] 0 | [20] 0

O=S(=O)(NCCCN1c2ccccc2CCc2ccc(Cl)cc21)c1ccc(OC(F)(F)F)cc1 (2.5 µM)
inactive: [1] 0 | [2] 0 | [3] 0 | [4] 0 | [5] 0 | [6] 0 | [7] 0 | [8] 0 | [9] 0 | [10] 0 | [11] 0 | [12] 0 | [13] 0 | [14] 0 | [15] 0 | [16] 0 | [17] 0 | [18] 0 | [19] 0 | [20] 0

CC1=C(C(=O)O)N2C(=O)[C@@H](NC(=O)[C@H](N)C3=CCC=CC3)[C@H]2SC1 [Cephradine] (10 µM)
inactive: [1] 0 | [2] 0 | [3] 0 | [4] 0 | [5] 0 | [6] 0 | [7] 0 | [8] 0 | [9] 0 | [10] 0 | [11] 0 | [12] 0 | [13] 0 | [14] 0 | [15] 0 | [16] 0 | [17] 0 | [18] 0 | [19] 0 | [20] 0

CCCS(=O)(=O)Nc1ccc(F)c(C(=O)c2c[nH]c3ncc(-c4ccc(Cl)cc4)cc23)c1F [Vemurafenib] (10 µM)
inactive: [1] 0 | [2] 0 | [3] 0 | [4] 0 | [5] 0 | [6] 0 | [7] 0 | [8] 0 | [9] 0 | [10] 0 | [11] 0 | [12] 0 | [13] 0 | [14] 0 | [15] 0 | [16] 0 | [17] 0 | [18] 0 | [19] 0 | [20] 0
